The values that follow come from PubChem BioAssay AID2685 (National Center for Advancing Translational Sciences (NCATS), 2010).

The experiment in a line: qHTS Assay for Lipid Storage Modulators in Drosophila S3 Cells.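 On cell number change: cells counted by Cell Tracker Red CMTPX staining in the red channel.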 The conditions noted are these: BODIPY lipid droplet fluorescence, 18-24 h; for cell number change: measured here: cell count max response, cells fed with added oleic acid. The method in brief: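 Drosophila S3 cells loaded with oleic acid (400 uM, as added) and compounds at several concentrations; lipid droplets imaged by 488-nm laser-scanning cytometry, 500–530 nm intensity and object ratio to cell channel. Percent activity normalized to 20 uM Triacsin C.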

The mark [1] stands for this setting: measured here: lipid fluorescence (Fed channel) AC50, cells fed with added oleic acid.
[2] abbreviates: measured here: cell number channel AC50, cells fed with added oleic acid.

The other results are listed elsewhere or left out. Shown are side measurements of this screen, not its main read-out; they come without a call. Compounds called inactive in the main read-out are mostly missing here. The note in brackets gives the kind of curve behind each potency; many fits are weak.

On to `O=C(CSc1nc2ccccc2c(=O)n1NC(=O)c1ccccc1)c1ccccc1`, for which the cell number change worked out at 16.9%. Moreover, the AC50 under setting [1] was 2.59 µM [rising, full curve].

Turning to `COc1ccc(CNC(=O)C2CCN(S(=O)(=O)c3ccc(-c4nn[nH]n4)cc3)CC2)cc1`, the cell number change came to 6.02%.

For the compound `COc1ccc(C(=S)N2CCOCC2)cc1OS(=O)(=O)c1ccc(Br)cc1`, the cell number change stood at 10.6%. For the same compound, under setting [2], the AC50 was 3.66 µM [rising, partial curve, poor fit]. Besides, the AC50 under setting [1] was 16.4 µM [falling, single point].

As to `O=C(CSC(=S)N1CCCCC1)c1c(F)cccc1F`, the cell number change was -65.9%. In addition, the concentration at half-maximal activity (AC50) under setting [2] was 20.6 µM [falling, single point]. For the same compound, the half-maximal activity concentration (AC50) under setting [1] was 23.1 µM [falling, single point].

As to `CC(=O)Nc1ccc(S(=O)(=O)Nc2ccccc2N2CCOCC2)cc1Cl`, the cell number change was determined as 28.2%. For the same compound, the AC50 under setting [1] was 6.51 µM [rising, single point].

As for `CCCc1cc(=O)n2[nH]c(C)nc2n1`, the cell number change is -12.4%. Moreover, the AC50 under setting [1] was 23.1 µM [falling, partial curve].

Regarding `CSC1=NCCN1C(=O)c1c(F)cccc1Cl`, the cell number change was found to be 41.6%. Also, the half-maximal activity concentration (AC50) under setting [2] is 14.6 µM [rising, single point]. For the same compound, the AC50 under setting [1] is 2.91 µM [rising, partial curve].

Consider `c1ccc(OCc2nnc3sc(-c4cccs4)nn23)cc1`, for which the cell number change is -7.21%. The AC50 under setting [1] is 2.06 µM [rising, full curve].

In the case of `Cc1cc(NC(=O)CSc2nnc(CNc3cccc(C(F)(F)F)c3)n2Cc2ccco2)no1`, the cell number change stood at 10.1%. The concentration at half-maximal activity (AC50) under setting [1] was 0.231 µM [falling, full curve, poor fit].

In the case of `CCCCn1c(=O)[nH]c(=O)c2c1nc(-c1ccccc1F)n2Cc1ccccc1OC`, the cell number change worked out at 6.12%. The AC50 under setting [1] is 2.06 µM [rising, partial curve, poor fit].

`CCc1nnc(NC(=O)c2cc3ccccc3oc2=O)s1`: under setting [1], the AC50 was 20.6 µM [rising, single point].

For the compound `O=C(Nc1ccc(Cc2ccncc2)cc1)c1cc(F)c(F)cc1Cl`, the cell number change is -6.04%. Besides, the AC50 under setting [1] is 2.06 µM [falling, single point].

In the case of `Cc1cc(Cl)ccc1NC(=S)NCCN1CCOCC1`, the cell number change is 3.21%. For the same compound, under setting [1], the half-maximal activity concentration (AC50) is 10.3 µM [rising, partial curve, poor fit].

Consider `Cc1cc([N+](=O)[O-])ccc1NC(=O)CN1CCN(Cc2ccccc2)CC1`, for which the cell number change came to 4.23%. Also, the half-maximal activity concentration (AC50) under setting [1] was 29.1 µM [rising, single point].

Consider `CC(NC(=O)c1ccco1)C(=O)N1CCN(c2cccc(C(F)(F)F)c2)CC1` (stereo unspecified), for which the cell number change was -18%. In addition, the half-maximal activity concentration (AC50) under setting [2] is 6.51 µM [falling, single point]. Besides, the half-maximal activity concentration (AC50) under setting [1] was 6.51 µM [falling, single point].

On to `Cc1ccc(-n2c(-c3ccc(Cl)cc3)n[nH]c2=S)cc1`, for which the cell number change was -10.1%. Also, the half-maximal activity concentration (AC50) under setting [1] was 29.1 µM [falling, single point].

Consider `Cc1cc([N+](=O)[O-])nn1CC(=O)Nc1ccc(F)cc1`, for which the cell number change was -5.1%. In addition, the AC50 under setting [2] was 0.00461 µM [falling, full curve, poor fit]. Also, the AC50 under setting [1] was 0.0058 µM [falling, full curve, poor fit].

For `C=CCNc1oc(C2CCCC2)nc1C#N`, the cell number change is -34.7%. Besides, the AC50 under setting [2] was 29.1 µM [falling, partial curve, poor fit]. Also, the AC50 under setting [1] is 5.8 µM [rising, full curve].

`O=C(Nc1cccc(CCc2ccccn2)c1)c1ccc(Cl)cc1`: the concentration at half-maximal activity (AC50) under setting [2] is 2.91 µM [rising, single point] and the AC50 under setting [1] is 2.31 µM [rising, partial curve, poor fit].

On to `CC(C)CC(=O)Nc1ccc(Nc2ccccc2)cc1`, for which the cell number change was -16.4%. For the same compound, under setting [1], the AC50 is 16.4 µM [falling, single point].

For `CCS(=O)(=O)C(C)(CCl)C(=O)Nc1ccc(C(=O)OC)cc1` (stereo unspecified), the cell number change worked out at 16%. For the same compound, the AC50 under setting [1] was 9.2 µM [rising, partial curve].

In the case of `COc1ccc(S(=O)(=O)N2CCOCC2)cc1NC(=O)COc1ccc(C(C)=O)cc1OC`, the cell number change was 39.4%. For the same compound, under setting [2], the half-maximal activity concentration (AC50) is 1.64 µM [rising, full curve].

On to `Cc1ccccc1NC(=O)c1cc2ccccn2n1`, for which the cell number change amounted to 65.2%. Also, under setting [2], the AC50 was 0.326 µM [rising, full curve]. The AC50 under setting [1] is 0.291 µM [rising, full curve].

Regarding `COc1cc(/C=C(\C#N)C(=O)NC(C)C)cc(Cl)c1O`, the AC50 under setting [1] was 0.146 µM [rising, single point].

Consider `N/C(=N\OC(=O)CCc1ccccc1)c1cccnc1`, for which the cell number change was found to be 38.4%. In addition, under setting [2], the AC50 was 14.6 µM [rising, partial curve, poor fit].

As for `CC(=O)NC(NC(=S)Nc1cccc(Br)c1)C(Cl)(Cl)Cl` (stereo unspecified), the cell number change is -16.3%.

For the compound `CCOc1ccccc1C(=O)NCC(=O)NCCCc1ccccc1`, the cell number change was -16.7%. The concentration at half-maximal activity (AC50) under setting [1] was 0.116 µM [falling, full curve, poor fit].

For the compound `Cc1cc(C)cc(Nc2ncc3c(n2)CCCC3=O)c1`, the cell number change came to 0.074%. Moreover, the AC50 under setting [1] is 0.366 µM [rising, full curve, poor fit].

As to `Cc1cccc(NC(=O)C2CCCN2S(=O)(=O)c2ccc(Cl)cc2)n1` (stereo unspecified), the cell number change was -44.6%. Also, under setting [2], the concentration at half-maximal activity (AC50) is 13 µM [falling, partial curve, poor fit]. Also, under setting [1], the concentration at half-maximal activity (AC50) is 20.6 µM [falling, partial curve].

On to `Cc1cc(-n2c(SCCC#N)nnc2-c2cccnc2)ccc1Cl`, for which the cell number change turned out to be 29.8%.

On to `O=S(=O)(N/N=C\c1ccc(-c2ccccc2Cl)o1)c1ccccc1`, for which the cell number change was -52.7%. Also, the concentration at half-maximal activity (AC50) under setting [2] is 16.4 µM [falling, partial curve, poor fit]. The AC50 under setting [1] was 14.6 µM [falling, partial curve, poor fit].

With `Cc1ccc(CN(Cc2ccco2)C(=S)NCC(=O)NC2CC2)cc1`, the cell number change worked out at 19.8%.

For the compound `CC1CCN(CCCCOc2cccc(C(C)C)c2)CC1`, the cell number change came to 9.72%.

As to `Cc1cc(NC(=O)CSc2n[nH]c(-c3ccc(Cl)cc3Cl)n2)no1`, the cell number change was -14.8%. For the same compound, under setting [1], the half-maximal activity concentration (AC50) is 29.1 µM [falling, single point].

Turning to `O=C(Nc1ccc2[nH]ncc2c1)c1ccc(F)cc1`, the cell number change turned out to be 18.9%.

Regarding `COc1ccc(CC(=O)NC2CCCCCC2)c(OC)c1`, the cell number change is -30.6%. In addition, under setting [1], the AC50 is 0.58 µM [falling, single point].

As for `O=C(CCc1ccc(S(=O)(=O)N2CCOCC2)cc1)NCCc1ccccn1`, the cell number change is -5.3%. Further, under setting [1], the half-maximal activity concentration (AC50) is 0.92 µM [rising, single point].

Regarding `Cn1cc(CN2CCN(CC(C)(C)C)C(CCO)C2)c2ccccc21` (stereo unspecified), the cell number change is 3.57%. Besides, under setting [1], the concentration at half-maximal activity (AC50) is 0.58 µM [rising, partial curve, poor fit].

Take `O=c1[nH]c2ccc(S(=O)(=O)N3CCCC3)cc2[nH]1`: the cell number change was found to be 4.76%.

`CC(=O)Nc1nc(C)c(CCCOc2ccc([N+](=O)[O-])cc2)c(=O)[nH]1`: the cell number change was 4.76%. Moreover, the concentration at half-maximal activity (AC50) under setting [2] was 0.164 µM [rising, full curve, poor fit].

As to `Cc1cc(O)ccc1Nc1nc(-c2sc(N)nc2C)cs1`, the AC50 under setting [2] was 0.13 µM [falling, full curve, poor fit].

As to `O=C(NC1CCN(S(=O)(=O)c2ccc(F)cc2)CC1)c1cccnc1`, the cell number change is -25.6%. Under setting [1], the AC50 was 1.16 µM [falling, full curve].

As for `O=C(COc1ccc(Br)cc1Cl)NC(=O)NCc1ccccc1`, the AC50 under setting [1] was 29.1 µM [rising, partial curve, poor fit].

In the case of `Cc1cccc(Nc2nnc(SCC(=O)NCc3cccs3)s2)c1C`, the cell number change was -33.3%. In addition, the AC50 under setting [2] is 0.164 µM [falling, full curve, poor fit].

In the case of `CC(C)CNC(=O)CC1Nc2ccccc2NC1=O` (stereo unspecified), the half-maximal activity concentration (AC50) under setting [1] is 23.1 µM [falling, single point].

On to `COc1ccc(NS(=O)(=O)c2ccc(O)c(NC(=O)c3ccc(S(=O)(=O)N4CCCC4)cc3)c2)cc1`, for which the cell number change is -18.3%. In addition, the concentration at half-maximal activity (AC50) under setting [2] was 2.59 µM [falling, partial curve]. Under setting [1], the AC50 was 2.06 µM [falling, partial curve, poor fit].

Consider `N#CCCN(Cc1ccccc1)C(=S)Nc1ccc(F)cc1`, for which the cell number change was 1.85%. Further, the AC50 under setting [2] is 4.11 µM [falling, single point]. For the same compound, under setting [1], the AC50 was 5.17 µM [falling, single point].

As for `Cc1nonc1NC(=O)CSc1nc(C2CCCCC2)nc2ccccc12`, the cell number change was -34.6%. Further, under setting [2], the AC50 was 13 µM [falling, partial curve, poor fit].

As to `Cc1ccc(-c2nnc(N)s2)cc1`, the cell number change stood at 24.7%. Also, the concentration at half-maximal activity (AC50) under setting [2] is 0.058 µM [rising, full curve, poor fit]. Also, the half-maximal activity concentration (AC50) under setting [1] was 0.146 µM [rising, full curve, poor fit].

With `Cc1nc(N)sc1N=Nc1ccccc1C(F)(F)F`, the cell number change was -43.1%. The AC50 under setting [2] is 16.4 µM [falling, single point]. Under setting [1], the concentration at half-maximal activity (AC50) was 29.1 µM [falling, single point].

As to `CC(=O)c1c[nH]c(C(=O)NCc2cccc(C(F)(F)F)c2)c1`, the cell number change was found to be 13.4%. In addition, the AC50 under setting [1] was 6.51 µM [falling, single point].

For `Cn1nc([N+](=O)[O-])nc1S(C)(=O)=O`, the cell number change is 17.2%. For the same compound, the AC50 under setting [2] is 0.164 µM [falling, full curve].

As for `CCOc1cc(N2CCOCC2)c(OCC)cc1NC(=O)COC(=O)[C@@H]1CCCN1S(=O)(=O)c1ccccc1F`, the cell number change worked out at 70.1%. For the same compound, under setting [2], the concentration at half-maximal activity (AC50) is 29.1 µM [rising, single point].

In the case of `COc1cc(/C=N/NC(=O)c2ccncc2)ccc1OC(=O)c1cccc(F)c1`, the cell number change worked out at 35.7%. The AC50 under setting [2] is 29.1 µM [rising, single point]. The AC50 under setting [1] is 3.26 µM [rising, partial curve].

Turning to `[O-][N+]1=C(c2cccs2)CN(O)C1`, the cell number change is -1.68%. In addition, under setting [1], the AC50 is 0.517 µM [falling, full curve].

On to `CC1CCc2c(sc(NC(=O)/C=C/c3cccs3)c2C(=O)O)C1` (stereo unspecified), for which the cell number change is -10.5%. In addition, the AC50 under setting [1] was 29.1 µM [falling, single point].

On to `O=C(c1ccc(S(=O)(=O)NCc2ccco2)cc1)N1CCN(c2ccc(F)cc2)CC1`, for which the cell number change was -17.3%. The half-maximal activity concentration (AC50) under setting [1] was 0.103 µM [falling, full curve, poor fit].

Regarding `O=C(NC1CCCCC1)c1cccc(S(=O)(=O)N2CCCCC2)c1`, the AC50 under setting [2] was 0.164 µM [falling, full curve, poor fit].

On to `CCN(CC)C(=O)c1nn(-c2ccccc2)c2c1C1CCC2(C)C1(C)C` (stereo unspecified), for which the cell number change was 27.4%. Also, the half-maximal activity concentration (AC50) under setting [2] was 4.11 µM [rising, single point]. For the same compound, the AC50 under setting [1] is 4.11 µM [rising, partial curve, poor fit].

For the compound `COCCn1cnc2c1c(=O)n(Cc1ccc(Br)cc1)c(=O)n2Cc1ccccc1`, the cell number change was -17.5%.

One may read the AC50 as the concentration at which the activity in the assay is half-maximal. A higher AC50 goes with weaker potency.
